Laboratory results reported in PubChem BioAssay AID1671190 (National Center for Advancing Translational Sciences (NCATS), 2021).
Screen size: about 580,000 compounds; about 6,100 (1.1%) were called active. The inconclusive results got no clear call from the source; some entries with a clear call stand among them for comparison. Calls follow the shape of the dose curve; as a rule, active = well fitted inhibition curve with a large enough effect; inconclusive = small, poorly fitted or top-dose-only effect, or another doubt; inactive = no such curve, though single readings can be large or run the other way. Where the call is inconclusive, the potency comes from a doubtful curve fit.

Chains of the proteins cited; added tags and fusions are not shown.
UniProt P18054, whole entry, looked up: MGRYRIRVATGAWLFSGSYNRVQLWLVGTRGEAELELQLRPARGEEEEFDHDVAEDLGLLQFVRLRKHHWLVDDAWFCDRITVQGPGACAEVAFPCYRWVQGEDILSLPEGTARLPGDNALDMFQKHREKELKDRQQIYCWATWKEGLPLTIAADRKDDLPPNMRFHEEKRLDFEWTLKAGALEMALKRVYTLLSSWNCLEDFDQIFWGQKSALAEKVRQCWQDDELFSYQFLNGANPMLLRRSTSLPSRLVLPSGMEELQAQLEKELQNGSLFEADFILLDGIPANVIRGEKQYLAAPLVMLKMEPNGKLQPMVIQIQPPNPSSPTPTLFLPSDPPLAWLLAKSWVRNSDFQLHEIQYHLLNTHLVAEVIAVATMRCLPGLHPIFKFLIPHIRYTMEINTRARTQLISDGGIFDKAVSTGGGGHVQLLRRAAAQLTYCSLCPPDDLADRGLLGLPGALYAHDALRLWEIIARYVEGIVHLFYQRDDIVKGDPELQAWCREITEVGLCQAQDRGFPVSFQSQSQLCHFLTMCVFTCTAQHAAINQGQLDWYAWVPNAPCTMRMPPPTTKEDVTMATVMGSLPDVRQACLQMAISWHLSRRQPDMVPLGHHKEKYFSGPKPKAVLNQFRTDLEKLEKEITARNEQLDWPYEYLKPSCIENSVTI

molecular target: Polyunsaturated fatty acid lipoxygenase ALOX12 (Homo sapiens) (UniProt P18054); experiment: Primary qHTS assay for inhibitors of human arachidonate 12S-lipoxygenase (ALOX12): Round 2; conditions: purified 12hLO, xylenol orange hydroperoxide absorbance; activity change, negative = inhibition: at 108 µM (top of the series) unless noted
Outline: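 Hydroperoxide product was detected by ferrous iron/xylenol orange as the 573 to 405 nm absorbance ratio. Arachidonic acid at 40 uM (final) was turned over for 30 min at room temperature by 150 nM human 12hLO, pH 7.0 Hepes buffer, after 15 min compound preincubation.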
% is scaled to controls: 0 for no effect and ±100 for the full control effect; potency is read from the fitted curve at half-maximal effect.

| SMILES | Potency | activity change, negative = inhibition |
| --- | --- | --- |
| C#CCN(C[C@@H]1[C@@H](OC(=O)NCc2ccccc2F)[C@@H](OC(=O)NCc2ccccc2F)CN(C(=O)OC(C)C)N1C(=O)OC(C)C)S(=O)(=O)c1ccc(C)cc1 | inconclusive: 50.1 µM [inhibitor, partial curve, poor fit] | – |
| COC(=O)c1ccc2cc(C(=O)O)ccc2c1 | – | inactive: 58.4% |
| CC1CCC(C(C)C)C(OC(=O)COC(=O)/C=C/c2ccc3c(c2)OCO3)C1 (stereo not given) | inconclusive: 112 µM [inhibitor, single point] | – |
| Cc1ccc(-c2nc(CNC(=O)c3ccco3)cs2)cc1 | inconclusive: 63.1 µM [inhibitor, partial curve, poor fit] | – |
| Cc1nc(N2CCC(NC(=O)c3ccco3)CC2)cc(C(F)(F)F)n1 | inconclusive: 15.8 µM [inhibitor, full curve] | – |
| COC(=O)[C@@]12C[C@@H](CC(=O)NCCC(C)C)C(=O)N(Cc3ccco3)C1=CCC(C)(C)C2 | – | inactive: -1.62% |
| CC1CN(CC(O)COc2ccc(C#N)cc2)CCN1CC(O)COc1ccc(C#N)cc1 (stereo not given) | inconclusive: 126 µM [inhibitor, partial curve, poor fit] | – |
| C[C@H]1c2cccc(O)c2C(O)=C2C(=O)[C@]3(O)C(O)=C(C(N)=O)C(=O)[C@@H](N(C)C)[C@@H]3[C@@H](O)[C@@H]21 | inconclusive: 1.78 µM [inhibitor, full curve, poor fit] | – |
| CCc1cc(=O)[nH]c(-n2[nH]c(-c3ccccc3)cc2=O)n1 | inconclusive: 44.7 µM [inhibitor, partial curve, poor fit] | – |
| Cc1ccc(-c2ccc(C=O)cc2)cc1Cl | inconclusive: 79.4 µM [inhibitor, full curve, poor fit] | – |
| O=C(CCCCC(=O)NCCCc1ccccc1)NCCCc1ccccc1 | – | inactive: 1.31% |
| Cc1noc(C)c1-c1ccc2ncnc(Nc3ccccc3)c2c1 | inconclusive: 8.91 µM [inhibitor, partial curve, poor fit] | – |
| COc1cc(O)c(C(CC(=O)N2CCOCC2)c2ccc(N(C)C)cc2)c(OC)c1 (stereo not given) | inconclusive: 112 µM [inhibitor, single point] | – |
| CCCn1c(=O)c2sc(N3CCCC3)nc2n(CC(=O)Nc2ccccc2OCC)c1=O | inconclusive: 158 µM [inhibitor, partial curve, poor fit] | – |
| CC(C)=CCCC1(C)C=Cc2c(c(C)cc3c2[nH]c2cc(O)ccc23)O1 (stereo not given) | inconclusive: 112 µM [inhibitor, single point] | – |
| O=C1CC(C(=O)Nc2ccccc2)c2c(nc(SCc3ccccc3Cl)[nH]c2=O)N1 (stereo not given) | inconclusive: 50.1 µM [inhibitor, partial curve, poor fit] | – |
| COc1ccc(-c2noc([C@@H]3C[C@H](NC(=O)COCC(=O)O)CN3C)n2)cc1 | inconclusive: 15.8 µM [inhibitor, full curve] | – |
| Cn1ccnc1SCc1cccc([N+](=O)[O-])c1 | inconclusive: 35.5 µM [inhibitor, partial curve, poor fit] | – |
| Cc1csc(NC(=O)C(C)Oc2ccc(Br)cc2)n1 (stereo not given) | inconclusive: 56.2 µM [inhibitor, partial curve, poor fit] | – |
| COc1ccc(CC(=O)Nc2nc(-c3ccc(F)c(F)c3)cs2)cc1 | – | inactive: -14.3% |
| Cc1ccc(S(=O)(=O)NC(N)=NCCc2ccc(Cl)cc2)cc1 | inconclusive: 79.4 µM [inhibitor, partial curve, poor fit] | – |
| CCNC(=O)NC(=O)C(C)Oc1ccc(C(=O)c2ccc(Cl)cc2)cc1 (stereo not given) | inconclusive: 50.1 µM [inhibitor, partial curve, poor fit] | – |

| SMILES | Potency | activity change, negative = inhibition |
| --- | --- | --- |
| O=C1C(=O)N(c2cccc(Cl)c2)C(c2ccccc2[N+](=O)[O-])/C1=C(\O)c1ccccc1 (stereo not given) | inconclusive: 0.398 µM [inhibitor, full curve, poor fit] | – |
| COc1ccc(Cl)cc1NC(=O)CCCS(=O)(=O)c1nc(-c2ccc(OC)c(OC)c2)cc(C(F)(F)F)n1 | – | inactive: -6.12% |
| Cc1cccc(NC2=C(NC(=O)c3ccccc3)C(=O)c3ccccc3C2=O)c1 | active: 14.1 µM | – |
| CC1=C(C(=O)Nc2ccccc2)C(c2ccc(C(C)(C)C)cc2)NC(=S)N1 (stereo not given) | active: 39.8 µM | – |
| O=C(Nc1cnn(C23CC4CC(CC(C4)C2)C3)c1)c1cc(-c2ccccc2)on1 | – | inactive: -15.2% |
| CN(C)S(=O)(=O)c1cccc(C(=O)Nc2cc(Cl)cc(Cl)c2)c1 | inconclusive: 89.1 µM [inhibitor, single point] | – |
| CCOc1ccc(CCN2C(=S)N([C@@H](Cc3ccc(O)cc3)CN3CCC[C@@H]3CN3C(=S)NC[C@@H]3CC(C)C)C[C@@H]2Cc2ccccc2)cc1 | inconclusive: 39.8 µM [inhibitor, partial curve, poor fit] | – |
| CN(C)C(=O)c1ccc2nccn2c1 | – | inactive: 5% [at 12.5 µM] |
| CSc1c(C#N)c(N)c(C#N)c2c1COC(C)(C)C2 | – | inactive: 9.81% |
| Cc1ccc(-c2nnc(N3CCCCC3)c3ccccc23)cc1S(=O)(=O)N(C)C | – | inactive: 18.1% |
| Cc1cc(C)cc(NC(=O)CSc2ccc(Cl)cc2)c1 | – | inactive: 7.73% |
| Cc1noc(CSc2ccccc2C(=O)N2CCCc3ccccc32)n1 | – | inactive: 46.9% |
| COc1ccc2nc3cc(Cl)ccc3c(Nc3cc(CN4CCCC4)c(O)c(CN4CCCC4)c3)c2n1 | inconclusive: 44.7 µM [inhibitor, single point] | – |
| COc1ccc(-c2csc(-c3c(N)c(C(=O)c4ccccc4)n4ccccc34)n2)cc1 | – | inactive: 5.01% |
| O=C(NCCc1cccnc1)C1CCC(=O)N(CCc2cccc(F)c2)C1 (stereo not given) | inconclusive: 89.1 µM [inhibitor, partial curve, poor fit] | – |
| CSc1cccc(NC(=O)C(C)Br)c1 (stereo not given) | inconclusive: 11.2 µM [inhibitor, full curve, poor fit] | – |
| C/C(=N\Nc1ccccc1Br)c1ccc(-c2ccccc2)cc1 | active: 0.708 µM | – |
| COc1ccc(-c2c(C3=CCCCC3)oc3ccc(-c4ccc5c(c4)OCO5)cc23)cn1 | inconclusive: 39.8 µM [inhibitor, partial curve] | – |
| CS(=O)(=O)Nc1cccc(-c2nc(-n3ccnc3)c3ccccc3n2)c1 | inconclusive: 10 µM [inhibitor, full curve, poor fit] | – |
| CC(=O)Nc1cccc(/C(C)=N/NC(N)=S)c1 | – | inactive: -7.58% |
| COCc1cc(Cn2cc(-c3cncnc3)nn2)[nH]n1 | inconclusive: 14.1 µM [inhibitor, full curve] | – |
| Cc1cc(C)n2c(Nc3cccc(C(F)(F)F)c3)c(-c3ccsc3)nc2n1 | inconclusive: 112 µM [inhibitor, single point] | – |

Gathered by group: those above containing a cyano group.

| SMILES | Potency | activity change, negative = inhibition |
| --- | --- | --- |
| CC1CN(CC(O)COc2ccc(C#N)cc2)CCN1CC(O)COc1ccc(C#N)cc1 (stereo not given) | inconclusive: 126 µM [inhibitor, partial curve, poor fit] | – |
| CSc1c(C#N)c(N)c(C#N)c2c1COC(C)(C)C2 | – | inactive: 9.81% |

Continued.

| SMILES | Potency | activity change, negative = inhibition |
| --- | --- | --- |
| Cc1ccc(CC23CN4CCN(CC(C4)C2O)C3)c(C)c1 (stereo not given) | – | inactive: 0% |
| Cc1ccc(-n2nc3c(N4CCC(C(=O)NCCC(C)C)CC4)nnc(C)c3c2C)cc1 | inconclusive: 31.6 µM [inhibitor, single point] | – |
| Cc1cnnc2ccc3c(no[n+]3[O-])c12 | inconclusive: 35.5 µM [inhibitor, single point] | – |
| Cc1ccc(N(C(=O)Cn2nnc(-c3ccc(C)o3)n2)C(C(=O)NC2CCCC2)c2ccncc2)cc1 (stereo not given) | inconclusive: 112 µM [inhibitor, single point] | – |
| Cc1cc(C)cc(-n2ccnc2SCC(=O)Nc2ccc(C)c(Cl)c2)c1 | – | inactive: -18.6% |
| CC(=O)Nc1cccc(Oc2ccc3nnc(-c4ccc(Br)cc4)n3n2)c1 | inconclusive: 89.1 µM [inhibitor, partial curve, poor fit] | – |
| O=C(CN1CCN(c2ccc(Cl)cc2)CC1)Nc1ccc(F)c(F)c1 | inconclusive: 44.7 µM [inhibitor, partial curve, poor fit] | – |
| O=S(=O)(O)c1cc(Cl)cc(N=Nc2ccc(O)cc2O)c1O | active: 44.7 µM | – |
| Cc1ccc(C(=O)C2CCN(C(=S)NCCCOC(C)C)CC2)cc1 | inconclusive: 50.1 µM [inhibitor, partial curve, poor fit] | – |
| CCC(C(=O)N1CCc2cn(CCOC)c3cccc(c23)C1)c1ccccc1 (stereo not given) | inconclusive: 3.98 µM [inhibitor, full curve] | – |
| COc1ccc(OC)c(NC(=O)COc2c(C)cc(C)cc2C)c1 | inconclusive: 2.51 µM [inhibitor, partial curve, poor fit] | – |
| CCOc1ccc(NC(=O)C2CCN(c3nc4ccccc4nc3OC)CC2)cc1 | – | inactive: 4.46% |
| COCC(=O)N1CCCC(c2nn(-c3ccc(OC)cc3)c(=O)[nH]2)C1 (stereo not given) | – | inactive: 37.5% [at 176 µM] |
| CCOC(=O)C1(CCC(C)C)CC(CSc2nc3ccccc3[nH]2)OC1=O (stereo not given) | inconclusive: 12.6 µM [inhibitor, partial curve, poor fit] | – |
| CS(=O)(=O)c1ccc(C(=O)Nc2c(Cl)cc(NC(=O)c3ccccn3)cc2Cl)cc1 | inconclusive: 100 µM [inhibitor, single point] | – |
| COc1ccc2c(c1)CCN=C2C[C@H]1CN(C(=O)c2ccc(C#N)cc2)CC[C@H]1CC(=O)O | active: 63.1 µM | – |
| Cc1ccc(NS(=O)(=O)c2cc(Br)cnc2N)c(Cl)c1 | inconclusive: 50.1 µM [inhibitor, partial curve, poor fit] | – |
| CC(CCc1ccccc1)NC(=O)c1cc(Cl)ccn1 (stereo not given) | – | inactive: -41.3% |
| CCOC(=O)CSc1nc2cc(OCC)ccc2cc1C#N | – | inactive: -20.2% |
| O=C1NCN(Cc2ccc(Cl)cc2)C12CCN(Cc1ccc(C(F)(F)F)cc1)CC2 | inconclusive: 70.8 µM [inhibitor, partial curve, poor fit] | – |
| Cc1ccc(/C(O)=C2\C(=O)C(=O)N(CCCN3CCOCC3)C2c2ccccc2F)cc1 (stereo not given) | inconclusive: 79.4 µM [inhibitor, partial curve, poor fit] | – |

2 of these compounds in another layout.
SMILES,Potency,"activity change, negative = inhibition"
CCOC(=O)CSc1nc2cc(OCC)ccc2cc1C#N,–,inactive: -20.2%
O=C1NCN(Cc2ccc(Cl)cc2)C12CCN(Cc1ccc(C(F)(F)F)cc1)CC2,"inconclusive: 70.8 µM [inhibitor, partial curve, poor fit]",–
